Data published in US20240148745A1, “COMPOUNDS FOR USE IN PROGRESSIVE MULTIPLE SCLEROSIS” (FONDAZIONE CENTRO SAN RAFFAELE, priority 2021, published 2024).
Some of these results come from one statement about several compounds together.

What was measured:
[1] = system: human fetal neural precursors (hufNPCs) derived OPCs; experiment: Human fetal neural precursors (hufNPCs)-derived OPCs differentiation; assay type: cell-based; settings: 1 μM, 7 days; >1.5 with p<0.05, >1.3 with 0.05<p<0.07
[2] = system: murine cortical neurons (14 DIV); experiment: NMDA-mediated neuroprotective assay (CCK8 viability); assay type: cell-based, mouse; settings: 1 μM, 24 h pre-treatment, NMDA 8 μM 24 h
Protocol: To assess neuroprotective activity of 160 selected non-toxic compounds on primary murine cortical neurons, obtained as described in the previous paragraph, ([…]), cultures were pre-treated with 1 μM compounds for either 3 or 24 hours, followed by 24 hours chronic stimulation with NMDA (8 μM) to induce neuronal damage. Each test plate included: a negative control (untreated), vehicle-treated control (0.02% vol/vol DMSO), a positive neurotoxic control—staurosporine 0.1 μM, a stressor—NMDA 8 μM, a positive neuroprotective control—NAC 300 μM, and a combination of stressor +neuroprotective molecule (NMDA+NAC). Cell viability was measured with Cell Counting Kit-8 assay compared to NMDA-treated control.
The potential neuroprotective activity of 160 selected non-toxic compounds was evaluated on murine cortical neurons (14 DIV) with either 3 h (FIG. 13) or 24 h compounds pre-treatment (FIG. 14). In assay with 3 h pre-treatment, 17 compounds were identified as potential NMDA-neuroprotective hits (marked with black asterisk in FIG. 13, stat. significant at p<0.05, Kruskal-Wallis test with post-hoc two-stage linear step-up procedure of Benjamini, Krieger and Yekutieli multiple comparison correction).

[3] = system: iPSC-derived neurons (DIV45); settings: 45 DIV, healthy control line
Protocol: This protocol was modified from Yuchen Qi et al.^32 First, neural progenitors (NPCs) were generated from hiPSCs by dual-SMAD inhibition. Shortly, at day 0 iPSC colonies (confluent at 70-80%) were washed with PBS Dulbecco's w/o Calcium w/o Magnesium (Euroclone) and hiPSCs' maintenance medium (mTeSR™, StemCell Technologies) was replaced with neural induction medium composed by DMEM/F12 plus N2 medium (1×), B27 without RA supplement (0.5×) (Life Technology), added with SB431542 (10 μM) and LDN (500 nM). This medium was kept until day 4 (“induction”). At day 4, cells were splitted (1:3) with the same induction medium using Accutase®/Accumax™ (StemCell Technologies) dissociated solution. Entire medium was replaced daily up to days 14-16 until rosette formation was observed (“patterning”). At days 14-16, cells were detached by Accutase®/Accumax™ and re-plated on polyornitine/laminin/fibronectin coated MW96 or MW24 plates for terminal differentiation in Neurobasal medium supplemented with B27 (0.5×), BDNF (20 ng/ml), dbcAMP (500 μM), ascorbic acid (200 μM), PD0325901 (1 μM), SU5402 (5 μM), CHIR (3 μM), human recombinant insulin (5 μg/ml), supplemented with RI (Rock inhibitor) (1:3000) to reduce dissociation induced apoptosis. […]

| Compound | neuroprotective capacity against NMDA-induced excitotoxicity, Z score [2] | also measured |
| --- | --- | --- |
| NCCCC[C@H](NC(=O)[C@@H](Cc1cc(Br)c(O)c(Br)c1)NC(=O)N1CCC(N2Cc3ccccc3NC2=O)CC1)C(=O)N1CCN(c2ccncc2)CC1 [Olcegepant] |  | fold change of OL differentiation (% GalC+ OLs forming sheets vs CC1+ cells, compound/DMSO) [1]: > 1.5 fold change |
| CC[C@H](CO)Nc1nc(NCc2ccccc2)c2ncn(C(C)C)c2n1 [Seliciclib] | > 0.5 |  |
| CCC(COC(=O)c1cc(OC)c(OC)c(OC)c1)(c1ccccc1)N(C)C (stereo not shown) [Trimebutine] | > 0.5 |  |
| COc1nc(C)cnc1NS(=O)(=O)c1cccnc1-c1ccc(-c2nnco2)cc1 [Zibotentan] |  | viability compared to DMSO [3]: 65-80% |
